Measurements as given in patent US5807691A, “Polypeptides having serotonin receptor activity (5HT5A), nucleic acids coding for these polypeptides and uses thereof” (Institut National De La Sante et Da La Recherche Medicale, priority 1992, dated 1998).

Assays:
5HT1D = conditions: cited from earlier work

In the case of `CC(C)NC[C@H](O)COc1cccc2ccccc12` [(-)Propanolol], the “pKi 5HT1D (Calf caudate)” value (5HT1D) is given as 5.5 and the “pKi 5HT5 (Cos-7)” value (5HT5a receptor) is given as 4.9.
